The supplement of paper PMC9233669
This sample is rich in variants without activity.

What was measured:
biotinyl-Leu-oxazolone = assay: self-aminoacylation, catalytic enhancement (BLO) (fold over background); higher = more active; k-Seq, kA / k0A0; sequences stand for … in GGGAAUGGAUCCACAUCUACGAAUUC…UUCACUGCAGACUUGACGAAGCUG
In short: (§1)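 Mutagenized RNA pools with a 21-nt variable region (0.43 μM) were reacted with each biotinyl-aminoacyl-oxazolone at 2–1250 μM for 90 minutes at room temperature, in 50 μL HEPES/NaCl/KCl/MgCl2/CaCl2 buffer containing 5% acetonitrile at pH 6.9–7.0. RNA captured on streptavidin was quantified by triplicate qPCR and by Illumina sequencing. The fraction reacted for each sequence was fit to a pseudo-first-order model with bootstrapping, and catalytic enhancement is the median kA divided by the uncatalyzed rate, taken as the low-activity peak of a bimodal Gaussian fit.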

biotinyl-Met-oxazolone = assay: self-aminoacylation, catalytic enhancement (BMO) (fold over background); higher = more active; k-Seq, kA / k0A0; sequences stand for … in GGGAAUGGAUCCACAUCUACGAAUUC…UUCACUGCAGACUUGACGAAGCUG
In short: as §1

biotinyl-Val-oxazolone = assay: self-aminoacylation, catalytic enhancement (BVO) (fold over background); higher = more active; k-Seq, kA / k0A0; sequences stand for … in GGGAAUGGAUCCACAUCUACGAAUUC…UUCACUGCAGACUUGACGAAGCUG
In short: as §1

biotinyl-Trp-oxazolone = assay: self-aminoacylation, catalytic enhancement (BWO) (fold over background); higher = more active; k-Seq, kA / k0A0; sequences stand for … in GGGAAUGGAUCCACAUCUACGAAUUC…UUCACUGCAGACUUGACGAAGCUG
In short: as §1

biotinyl-Ile-oxazolone = assay: self-aminoacylation, catalytic enhancement (BIO) (fold over background); higher = more active; k-Seq, kA / k0A0; sequences stand for … in GGGAAUGGAUCCACAUCUACGAAUUC…UUCACUGCAGACUUGACGAAGCUG
In short: as §1

biotinyl-Phe-oxazolone = assay: self-aminoacylation, catalytic enhancement (BFO) (fold over background); higher = more active; k-Seq, kA / k0A0; sequences stand for … in GGGAAUGGAUCCACAUCUACGAAUUC…UUCACUGCAGACUUGACGAAGCUG
In short: as §1

Row | Sequence | self-aminoacylation (biotinyl-Leu-oxazolone) | self-aminoacylation (biotinyl-Met-oxazolone) | self-aminoacylation (biotinyl-Val-oxazolone) | self-aminoacylation (biotinyl-Trp-oxazolone) | self-aminoacylation (biotinyl-Ile-oxazolone) | self-aminoacylation (biotinyl-Phe-oxazolone)
1 | CUCCUUCAAACAAUCCGUCUG [Fam1A.1 aminoacylation ribozyme variant] | 0.659 | 0.657 | 0.949 | 1.25 | 1.03 | 1.24
2 | CUCCUUCAAACAAUUGGUCUG [Fam1A.1 aminoacylation ribozyme variant] | 0.847 | 0.769 | 0.872 | 0.941 | 0.841 | 1.38
3 | CUGAUUCAAACAAUCGGUCUG [Fam1A.1 aminoacylation ribozyme variant] | 1.14 | 0.923 | 0.828 | 6.12 | 0.947 | 9.61
4 | CUGCUUCAAACAAUGGGUCUG [Fam1A.1 aminoacylation ribozyme variant] | 0.786 | 0.695 | 0.781 | 0.644 | 0.891 | 0.498
5 | CUGCUUUAAACAAUCGGUCUG [Fam1A.1 aminoacylation ribozyme variant] | 0.754 | 0.879 | 0.79 | 1.87 | 0.889 | 2
6 | CUUCACCUAGGUCAUUGGGUG [Fam2.2 aminoacylation ribozyme variant] | 2.25 | 2.36 | 2.22 | 2.35 | 1.98 | 12.3
7 | CUUCUUCAAACAAACGGUCUG [Fam1A.1 aminoacylation ribozyme variant] | 0.822 | 0.739 | 0.764 | 0.746 | 0.865 | 0.905
8 | CUUCUUGAAACAAUCGGUCUG [Fam1A.1 aminoacylation ribozyme variant] | 0.928 | 0.762 | 0.85 | 0.71 | 0.886 | 0.803
9 | GCACACUUCAAGCAAUCAGUC [Fam1B.1 aminoacylation ribozyme variant] | 1.44 | 1.47 | 1.4 | 4.94 | 1.51 | 9.69
10 | GCACACUUCAAGCAAUCGGAC [Fam1B.1 aminoacylation ribozyme variant] | 1.34 | 1.03 | 1.6 | 1.4 | 1.31 | 1.34
11 | GCACACUUCAAGCAAUCGGCC [Fam1B.1 aminoacylation ribozyme variant] | 3.49 | 2.99 | 3.45 | 6.96 | 3.36 | 4.88
12 | GCACACUUCAAGCAAUCGGGC [Fam1B.1 aminoacylation ribozyme variant] | 3.02 | 2.58 | 3.09 | 4.23 | 3.11 | 13.7
13 | GCACACUUCAAGCAAUCGGUC [Fam1B.1 aminoacylation ribozyme variant] | 1.82 | 1.47 | 1.71 | 19.8 | 1.66 | 32.3
14 | GUACCUCAAACAAUCGGUCUG [Fam1A.1 aminoacylation ribozyme variant] | 1.35 | 0.976 | 1.06 | 1.93 | 1.1 | 2.42
15 | GUACUUCAAAAAAUCGGUCUG [Fam1A.1 aminoacylation ribozyme variant] | 1.62 | 1.16 | 1.11 | 7.93 | 1.57 | 7.83
16 | GUACUUCAAACAACCGGUCUG [Fam1A.1 aminoacylation ribozyme variant] | 1.23 | 1.21 | 1.54 | 2.02 | 1.67 | 4.78
17 | GUACUUCAAACAAUAGGUCUG [Fam1A.1 aminoacylation ribozyme variant] | 1.14 | 1.28 | 1.18 | 1.5 | 1.34 | 1.89
18 | GUACUUUAAACAAUCGGUCUG [Fam1A.1 aminoacylation ribozyme variant] | 1.01 | 1.06 | 1.21 | 2.08 | 1.28 | 1.61

Row | Sequence | self-aminoacylation (biotinyl-Leu-oxazolone) | self-aminoacylation (biotinyl-Met-oxazolone) | self-aminoacylation (biotinyl-Val-oxazolone) | self-aminoacylation (biotinyl-Trp-oxazolone) | self-aminoacylation (biotinyl-Ile-oxazolone) | self-aminoacylation (biotinyl-Phe-oxazolone)
19 | GUUACCCUAGUCAUCGAGUGA [Fam2.1 aminoacylation ribozyme variant] | 6.93 | 6.66 | 3.33 | 7.77 | 3.81 | 28.1
20 | GUUACCCUGGUCAUCGAGAGA [Fam2.1 aminoacylation ribozyme variant] | 1.9 | 2.96 | 1.74 | 3.07 | 1.32 | 2.82
21 | GUUACCCUGGUCUUCGAGUGA [Fam2.1 aminoacylation ribozyme variant] | 8.79 | 8.47 | 5.01 | 10.1 | 4.45 | 50.7
22 | GUUCACCUAGGUCAUCGCGUG [Fam2.2 aminoacylation ribozyme variant] | 15 | 10.5 | 6.96 | 10.6 | 6.72 | 96.1
23 | GUUCACCUAGGUCAUCGUGUG [Fam2.2 aminoacylation ribozyme variant] | 1.24 | 1.14 | 1.22 | 0.945 | 1.08 | 0.565
24 | GUUUACCUAGGUCAUCGGGUG [Fam2.2 aminoacylation ribozyme variant] | 39.7 | 29 | 14.1 | 23.9 | 16.2 | 201
25 | UAGGUUGCUAAUAGUCGCAAG [Fam3.1 aminoacylation ribozyme variant] | 1.15 | 1.2 | 1.2 | 2.01 | 1.4 | 1.91
26 | UAGUUUGCUAAUAGUCGCAAG [Fam3.1 aminoacylation ribozyme variant] | 1.25 | 1.27 | 1.27 | 3.18 | 1.45 | 9.38
27 | UCACACGUCAAGCAAUCGGUC [Fam1B.1 aminoacylation ribozyme variant] | 1.06 | 0.98 | 1.25 | 0.958 | 1.03 | 0.861
28 | UCACACUUCAAGCAAUGGGUC [Fam1B.1 aminoacylation ribozyme variant] | 0.713 | 0.708 | 0.837 | 0.688 | 0.71 | 0.633
29 | UCACACUUCAAGCAUUCGGUC [Fam1B.1 aminoacylation ribozyme variant] | 1.19 | 1.23 | 1.37 | 1.33 | 1.24 | 0.838
30 | UCACACUUCAAGCGAUCGGUC [Fam1B.1 aminoacylation ribozyme variant] | 0.847 | 1.06 | 1.04 | 1.53 | 0.937 | 1.82
31 | UCUCACUUCAAGCAAUCGGUC [Fam1B.1 aminoacylation ribozyme variant] | 1.71 | 1.15 | 1.35 | 21.5 | 1.23 | 44.5
32 | UUACUUCAAUCAAUCGGUCUG [Fam1A.1 aminoacylation ribozyme variant] | 1.75 | 1.5 | 1.34 | 15 | 1.46 | 19.7
33 | UUCACCCUGGUCAUCGAGUGA [Fam2.1 aminoacylation ribozyme variant] | 10.6 | 11.3 | 6.29 | 12.7 | 5.88 | 13.2
34 | UUUACCGUGGUCAUCGAGUGA [Fam2.1 aminoacylation ribozyme variant] | 5.18 | 5.63 | 3.63 | 7.07 | 3.2 | 17.7
35 | UUUCACCUAGCUCAUCGGGUG [Fam2.2 aminoacylation ribozyme variant] | 2.24 | 1.77 | 2.73 | 2.5 | 2.03 | 1.68
